Some entries share one result that the patent states for a list of compounds.
Tests used:
[1] = target: T1, EIF2AK3 (PERK) catalytic domain (amino acids 536-1116) (Homo sapiens, UniProt Q9NZJ5); assay: PERK In Vitro Activity Assay (Isolated), TR-FRET kinase assay; format: biochemical; details: statement in words
T1 construct: EIF2AK3 (PERK) catalytic domain (amino acids 536-1116); purchased Invitrogen, Carlsbad, Calif
T1 sequence (Q9NZJ5 536-1116): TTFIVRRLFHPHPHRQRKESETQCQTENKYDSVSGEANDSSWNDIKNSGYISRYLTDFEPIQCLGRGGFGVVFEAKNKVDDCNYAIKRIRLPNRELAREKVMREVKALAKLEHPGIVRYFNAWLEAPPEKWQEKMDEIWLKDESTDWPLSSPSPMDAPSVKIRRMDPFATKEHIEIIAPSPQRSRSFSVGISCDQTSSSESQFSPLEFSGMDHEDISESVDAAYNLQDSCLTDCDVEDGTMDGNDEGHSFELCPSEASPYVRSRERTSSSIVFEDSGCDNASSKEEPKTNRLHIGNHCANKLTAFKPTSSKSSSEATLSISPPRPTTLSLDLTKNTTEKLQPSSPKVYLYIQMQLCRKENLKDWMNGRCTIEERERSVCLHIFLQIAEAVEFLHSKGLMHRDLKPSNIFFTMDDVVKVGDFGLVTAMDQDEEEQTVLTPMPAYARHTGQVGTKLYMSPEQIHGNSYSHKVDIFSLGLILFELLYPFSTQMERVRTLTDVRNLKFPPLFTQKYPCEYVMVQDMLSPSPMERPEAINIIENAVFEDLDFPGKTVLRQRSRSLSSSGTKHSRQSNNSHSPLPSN
Procedure: Perform TR-FRET kinase assays in the absence or presence of inhibitors in a reaction buffer consisting of 50 mM HEPES, pH 7.5, 10 mM MgCb, 1.0 mM EGTA, and 0.01% Brij-35, and 100-200 nM GFP-eIF2a substrate. […] Add test compound, initiate the reaction by addition of enzyme, and incubate at room temperature for 45 minutes. Stop the reaction by addition of EDTA to a final concentration of 10 mM, add Terbium-labelled phospho-eIF2a antibody at a final concentration of 2 nM, and incubate for 90 minutes. Monitor the resulting fluorescence in an EnVison® Multilabel reader (PerkinElmer, Waltham, Mass.).

[2] = tested on: HEK293-EGFP-eIF2a cells; assay: PERK Cellular Assay (TR-FRET, GFP-eIF2α, tunicamycin-induced ER stress); format: cell-based, human; details: statement in words
Procedure: Stable cell lines were created in HEK293 cells using lentiviral particles harboring an expression vector for GFP-eIF2α. Cells were selected using puromycin and enriched using fluorescence activated cell sorting against GFP. HEK293-EGFP-eIF2a cells were plated at 5000 cells/well in 384-well assay plates and incubated overnight at 37° C., 5% CO2. Inhibitor compounds were added to the wells by Echo acoustic dispensing and incubated for 30 minutes at 37° C., 5% CO2 prior to induction of ER stress by addition of tunicamycin to […] for 2 hours. Cells were lysed and TR-FRET was measured in an EnVision plate reader (PerkinElmer). FRET ratio data was normalized to signal from lysates treated with DMSO vehicle control and plotted as percent inhibition against 10-point; 3-fold dilution series of inhibitors. IC50 values were calculated using 4-parameter logistical fitting in XLFit.

For `Cc1nc(N)c2c(-c3ccc4c(c3)CCN4C(=O)C(O)c3cc(F)cc(C(F)(F)F)c3)cn(C)c2n1` (single isomer, unassigned) [Example 20, 1-(5-(4-amino-2,7-dimethyl-7H-pyrrolo[2,3-d]pyrimidin-5-yl)indolin-1-yl)-2-(3-fluoro-5-(trifluoromethyl)phenyl)-2-hydroxyethanone], the “inhibition of isolated PERK enzyme activity in vitro” value [1] was “inhibit isolated PERK enzyme activity in vitro” and the “inhibition of EIF2a in vitro (cellular assay)” value (from here on “inhibition of EIF2a in vitro”) [2] was “inhibit EIF2a in vitro”.
`Cc1cccc(CC(=O)N2CCc3c2ccc(-c2cn(C)c4nc(C)nc(N)c24)c3F)n1` [Example 21, 1-(5-(4-amino-2,7-dimethyl-7H-pyrrolo[2,3-d]pyrimidin-5-yl)-4-fluoroindolin-1-yl)-2-(6-methylpyridin-2-yl)ethanone] was tested, and the “inhibition of isolated PERK enzyme activity in vitro” value [1] was “inhibit isolated PERK enzyme activity in vitro” and the “inhibition of EIF2a in vitro” value [2] was “inhibit EIF2a in vitro”.
For `Cn1cc(-c2ccc3c(c2F)CCN3C(=O)Cc2cccc(C(F)(F)F)n2)c2c(N)ncnc21` [Example 22, 1-(5-(4-amino-7-methyl-7H-pyrrolo[2,3-d]pyrimidin-5-yl)-4-fluoroindolin-1-yl)-2-(6-(trifluoromethyl)pyridin-2-yl)ethanone], the “inhibition of isolated PERK enzyme activity in vitro” value [1] was “inhibit isolated PERK enzyme activity in vitro” and the “inhibition of EIF2a in vitro” value [2] was “inhibit EIF2a in vitro”.
In the case of `Cc1cccc(CC(=O)N2CCc3c2ccc(-c2nc(C)n4ccnc(N)c24)c3F)n1` [Example 23, 1-(5-(8-amino-3-methylimidazo[1,5-a]pyrazin-1-yl)-4-fluoroindolin-1-yl)-2-(6-methylpyridin-2-yl)ethanone], the “inhibition of isolated PERK enzyme activity in vitro” value [1] was “inhibit isolated PERK enzyme activity in vitro” and the “inhibition of EIF2a in vitro” value [2] was “inhibit EIF2a in vitro”.
`Cc1cccc(CC(=O)N2CCc3c2ccc(-c2nc(C)n4c(C)cnc(N)c24)c3F)n1` [Example 24, 1-(5-(8-amino-3,5-dimethylimidazo[1,5-a]pyrazin-1-yl)-4-fluoroindolin-1-yl)-2-(6-methylpyridin-2-yl)ethanone] was tested, and the “inhibition of isolated PERK enzyme activity in vitro” value [1] was “inhibit isolated PERK enzyme activity in vitro” and the “inhibition of EIF2a in vitro” value [2] was “inhibit EIF2a in vitro”.
With `CCc1cnc(N)c2c(-c3ccc4c(c3F)CCN4C(=O)Cc3cccc(C)n3)nc(C)n12` [Example 25, 1-(5-(8-amino-5-ethyl-3-methylimidazo[1,5-a]pyrazin-1-yl)-4-fluoroindolin-1-yl)-2-(6-methylpyridin-2-yl)ethanone] the “inhibition of isolated PERK enzyme activity in vitro” value [1] was “inhibit isolated PERK enzyme activity in vitro” and the “inhibition of EIF2a in vitro” value [2] was “inhibit EIF2a in vitro”.
In the case of `Cc1cccc(CC(=O)N2CCc3c2ccc(-c2nc(C)n4cc(C)nc(N)c24)c3F)n1` [Example 26, 1-(5-(8-amino-3,6-dimethylimidazo[1,5-a]pyrazin-1-yl)-4-fluoroindolin-1-yl)-2-(6-methylpyridin-2-yl)ethanone], the “inhibition of isolated PERK enzyme activity in vitro” value [1] was “inhibit isolated PERK enzyme activity in vitro” and the “inhibition of EIF2a in vitro” value [2] was “inhibit EIF2a in vitro”.
`Cc1cccc(CC(=O)N2CCc3c2ccc(-c2nc(C)n4c(C)c(C)nc(N)c24)c3F)n1` [Example 27, 1-(5-(8-amino-3,5,6-trimethylimidazo[1,5-a]pyrazin-1-yl)-4-fluoroindolin-1-yl)-2-(6-methylpyridin-2-yl)ethanone] was tested, and the “inhibition of isolated PERK enzyme activity in vitro” value [1] was “inhibit isolated PERK enzyme activity in vitro” and the “inhibition of EIF2a in vitro” value [2] was “inhibit EIF2a in vitro”.
With `Cn1cc(-c2ccc3c(c2F)CCN3C(=O)Nc2ccccc2)c2c(N)ncnc21` [Example 28, 5-(4-amino-7-methyl-7H-pyrrolo[2,3-d]pyrimidin-5-yl)-4-fluoro-N-phenylindoline-1-carboxamide] the “inhibition of isolated PERK enzyme activity in vitro” value [1] was “inhibit isolated PERK enzyme activity in vitro” and the “inhibition of EIF2a in vitro” value [2] was “inhibit EIF2a in vitro”.

Reference: patent US20220348584A1, “PERK INHIBITING INDOLINYL COMPOUNDS” (HiberCell, Inc., priority 2019, published 2022)
